These are yes or no findings as the source states them, for the method shown. In cells and extracts the contact can be indirect. Some results given as binding are weak or reduced against the parent protein; the word gives no strength.
What was measured:
[1] = target: Flag-tagged estrogen receptor alpha (Flag-ERα) (human) (UniProt P03372); test: co-IP; anti-Flag agarose IP from lysates of Ishikawa cells expressing Flag (Vec), Flag-ERα or Flag-ERβ, elution with 3xFlag peptide, immunoblot; Flag-ERα cells also pretreated with DMSO, E2, E3, BPA or DES (1 x 10^-6 M)
[2] = target: Flag-tagged estrogen receptor beta (Flag-ERβ) (UniProt Q92731); test: as above
[3] = target: Flag-tagged estrogen receptor alpha (Flag-ERα) (human) (UniProt P03372); test: co-IP; anti-Flag IP from lysates of SH-SY5Y neuroblastoma cells transfected with Flag (Vec), Flag-ERα or Flag-ERβ, treated with or without E3, immunoblot
[4] = target: Flag-tagged estrogen receptor beta (Flag-ERβ) (UniProt Q92731); test: as above

Protein sequences, listed by entry. Tags and fused reporters are not part of them.
UniProt P03372: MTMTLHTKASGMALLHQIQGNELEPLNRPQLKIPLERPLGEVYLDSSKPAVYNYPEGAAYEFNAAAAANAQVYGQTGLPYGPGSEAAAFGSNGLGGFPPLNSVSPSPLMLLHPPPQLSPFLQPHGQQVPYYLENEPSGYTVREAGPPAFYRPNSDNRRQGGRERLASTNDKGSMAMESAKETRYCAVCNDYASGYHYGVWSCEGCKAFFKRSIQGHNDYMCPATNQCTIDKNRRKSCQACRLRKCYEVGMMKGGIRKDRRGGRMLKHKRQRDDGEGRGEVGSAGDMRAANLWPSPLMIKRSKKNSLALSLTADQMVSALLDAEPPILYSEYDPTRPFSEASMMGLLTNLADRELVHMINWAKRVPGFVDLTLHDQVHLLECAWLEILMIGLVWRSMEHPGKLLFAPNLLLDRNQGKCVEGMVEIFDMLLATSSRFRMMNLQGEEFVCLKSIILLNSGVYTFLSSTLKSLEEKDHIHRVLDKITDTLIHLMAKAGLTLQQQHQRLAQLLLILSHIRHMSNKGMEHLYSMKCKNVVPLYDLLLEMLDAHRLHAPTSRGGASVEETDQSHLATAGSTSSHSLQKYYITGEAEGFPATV
UniProt Q92731: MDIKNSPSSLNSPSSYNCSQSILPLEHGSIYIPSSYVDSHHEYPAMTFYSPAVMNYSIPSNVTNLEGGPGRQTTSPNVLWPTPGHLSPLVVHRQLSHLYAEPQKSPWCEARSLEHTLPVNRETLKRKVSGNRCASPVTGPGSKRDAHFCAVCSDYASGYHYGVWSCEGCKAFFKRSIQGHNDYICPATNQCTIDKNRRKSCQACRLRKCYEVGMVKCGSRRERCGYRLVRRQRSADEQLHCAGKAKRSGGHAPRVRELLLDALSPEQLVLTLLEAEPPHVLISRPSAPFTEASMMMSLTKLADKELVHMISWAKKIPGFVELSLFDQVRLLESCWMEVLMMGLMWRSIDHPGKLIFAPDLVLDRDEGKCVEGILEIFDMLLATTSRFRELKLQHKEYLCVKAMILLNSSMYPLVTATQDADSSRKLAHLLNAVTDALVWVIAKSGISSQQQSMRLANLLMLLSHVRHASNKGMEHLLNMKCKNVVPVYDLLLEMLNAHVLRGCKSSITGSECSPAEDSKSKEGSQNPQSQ
UniProt Q15022: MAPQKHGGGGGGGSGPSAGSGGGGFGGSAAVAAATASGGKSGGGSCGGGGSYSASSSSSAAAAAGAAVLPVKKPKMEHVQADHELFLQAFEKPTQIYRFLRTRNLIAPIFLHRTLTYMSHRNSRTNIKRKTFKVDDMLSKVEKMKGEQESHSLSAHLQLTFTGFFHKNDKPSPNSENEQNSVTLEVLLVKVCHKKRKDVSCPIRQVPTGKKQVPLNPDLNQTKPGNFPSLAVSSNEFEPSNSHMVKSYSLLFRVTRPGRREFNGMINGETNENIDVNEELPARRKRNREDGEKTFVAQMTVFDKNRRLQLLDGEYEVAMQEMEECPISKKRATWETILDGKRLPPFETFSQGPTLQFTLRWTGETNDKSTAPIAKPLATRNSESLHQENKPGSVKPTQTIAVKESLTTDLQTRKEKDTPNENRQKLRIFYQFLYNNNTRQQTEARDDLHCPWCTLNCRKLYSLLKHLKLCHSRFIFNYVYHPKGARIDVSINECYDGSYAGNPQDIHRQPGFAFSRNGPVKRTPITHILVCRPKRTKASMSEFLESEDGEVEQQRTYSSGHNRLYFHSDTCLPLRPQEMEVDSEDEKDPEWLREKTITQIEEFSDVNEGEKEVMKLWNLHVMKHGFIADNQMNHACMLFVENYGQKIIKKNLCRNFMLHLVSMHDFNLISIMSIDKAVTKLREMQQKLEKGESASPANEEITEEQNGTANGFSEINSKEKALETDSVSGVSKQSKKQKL
UniProt Q13547: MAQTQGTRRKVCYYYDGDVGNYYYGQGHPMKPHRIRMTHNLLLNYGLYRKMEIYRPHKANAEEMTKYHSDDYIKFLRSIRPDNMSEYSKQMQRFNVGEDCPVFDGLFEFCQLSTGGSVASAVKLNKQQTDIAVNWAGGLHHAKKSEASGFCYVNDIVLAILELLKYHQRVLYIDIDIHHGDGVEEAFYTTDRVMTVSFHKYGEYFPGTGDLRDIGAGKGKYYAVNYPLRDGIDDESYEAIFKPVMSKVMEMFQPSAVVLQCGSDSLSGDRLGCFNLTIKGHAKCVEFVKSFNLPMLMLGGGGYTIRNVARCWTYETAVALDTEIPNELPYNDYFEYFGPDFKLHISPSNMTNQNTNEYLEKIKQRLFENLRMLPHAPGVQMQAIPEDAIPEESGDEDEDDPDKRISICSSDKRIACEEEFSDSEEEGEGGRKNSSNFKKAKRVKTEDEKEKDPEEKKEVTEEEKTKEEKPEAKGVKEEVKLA

Measured: binding

suppressor of Zeste 12 Protein (SUZ12) (from UniProt Q15022 1-739)
binds: all assays above

histone deacetylase 1 (HDAC1) (from UniProt Q13547 1-482) (enzyme)
binds: [2] | [4]

Reference: publication PMC9059368
